Some of the results follow. These are further read-outs of the screen, such as a control signal, another cell line or another target. No call is given for them. Most of these compounds were active or inconclusive in the main read-out, so they are no random draw. Words in brackets tell the shape of the fitted curve; partial curves, single points and poor fits give uncertain potencies.

This experiment in a line: qHTS Assay for Modulators of Lamin A Splicing. As to conditions: HeLa LMNA splicing GFP/RFP minigene ratio, 48 h. Put shortly: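 S3 HeLa stable clones carrying a lamin A-EGFP splicing minigene plus DsRed2 were seeded at 600 cells/well in Opti-MEM with 2% FBS, pin-dosed and incubated 48 h at 37°C. Acumen cytometry (488 nm) gave the GFP/RFP total-intensity ratio.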
In general terms: In qHTS, concentration-response curves come from the screen itself.

The mark [1] stands for this setting: measured here: GFP splicing reporter channel.
Setting [2] is: measured here: RFP viability control channel.

A word on the AC50: it is the midpoint of the concentration-response curve, whichever way the signal moves. With `CCOC(=O)c1ccc(Nc2nc(C(=O)OCC)nc3ccccc23)cc1`, the AC50 under setting [1] was 22.4 µM [falling, single point].

Regarding `Cc1cc(C)c(S(=O)(=O)NCC(c2ccc(N(C)C)cc2)N2CCc3ccccc32)c(C)c1` (stereo not given), under setting [2], the AC50 is 35.5 µM [rising, partial curve, poor fit].

Regarding `COc1cccc(OC)c1C(=O)Nc1nc2ccc([N+](=O)[O-])cc2s1`, the AC50 under setting [2] is 28.2 µM [falling, partial curve, poor fit].

Turning to `CCCOc1ccccc1C1CC(=O)Nc2cc3c(cc21)OCCO3` (stereo not given), the half-maximal activity concentration (AC50) under setting [2] was 3.16 µM [rising, full curve].

Take `COc1cccc(Cn2c(=O)c(-c3ccccc3)nc3cnc(N4CCNCC4)nc32)c1`: under setting [1], the AC50 is 10 µM [falling, partial curve].

As for `CCCn1c(O)c(/C=C2\C=NN=C2c2ccccc2)sc1=S`, the concentration at half-maximal activity (AC50) is 35.5 µM [falling, single point] under setting [1] and 15.8 µM [falling, single point] under setting [2].

As to `COC(=O)CNC(c1ccccc1)c1cc(C)ccc1NC(=O)c1cccc(Cl)c1` (stereo not given), the AC50 under setting [1] is 1 µM [rising, partial curve].

On to `Cc1cc(OCC(=O)Nc2ccncc2)cc(C)c1Br`, for which the AC50 runs as follows: under setting [1], 11.2 µM [rising, partial curve, poor fit]; under setting [2], 5.62 µM [rising, full curve].

In the case of `CCCNC(=O)c1c(N)n(-c2cccc(OC)c2)c2nc3ccccc3nc12`, the AC50 was 20 µM [falling, partial curve] under setting [1] and 31.6 µM [falling, single point] under setting [2].

As to `Cc1cc(C(=O)CSc2ncccn2)c(C)n1-c1cccc(F)c1`, the concentration at half-maximal activity (AC50) is, setting by setting: under setting [1], 10 µM [rising, partial curve]; under setting [2], 14.1 µM [rising, partial curve].

On to `Clc1ccc(C2=C3CCCCn4c(-c5ccccc5)c[n+](c43)C2)cc1`, for which the AC50 is, setting by setting: under setting [1], 35.5 µM [falling, single point]; under setting [2], 35.5 µM [falling, single point].

As to `O=C(Cn1cnc2c(cnn2-c2ccc(F)cc2)c1=O)NCc1ccco1`, the AC50 under setting [2] is 35.5 µM [rising, single point].

As to `O=C(NCc1noc2ccccc12)Nc1ccc(F)cc1F`, under setting [2], the concentration at half-maximal activity (AC50) is 0.000708 µM [falling, full curve, poor fit].

As for `Cc1cc(C(=O)N2CCCC(CNS(=O)(=O)c3cccs3)C2)nn1C` (stereo not given), the AC50 under setting [2] was 0.0447 µM [falling, full curve, poor fit].

As to `CCOc1cccc(C2c3[nH]c4ccccc4c3CCN2C(=O)CCc2ccccc2)c1` (stereo not given), the AC50 runs as follows: under setting [1], 0.562 µM [rising, single point]; under setting [2], 0.562 µM [rising, full curve].

As to `CCOc1ccc(CN2CCN(CC(O)Cn3c4ccccc4c4ccccc43)CC2)cc1` (stereo not given), the concentration at half-maximal activity (AC50) under setting [2] is 35.5 µM [rising, single point].

`CCN(CC)S(=O)(=O)c1ccc2nc(NC(=O)c3ccc(Br)o3)sc2c1`: the AC50 under setting [1] is 0.0251 µM [rising, full curve, poor fit].

Consider `Oc1ccccc1Oc1c(F)c(F)nc(N2CCCC2)c1F`, for which the AC50 under setting [1] is 0.1 µM [rising, single point].

Regarding `O=C(CCn1cnc(-c2ccccc2)c1-c1ccccc1)N/N=C/c1ccccc1O`, the AC50 under setting [2] is 22.4 µM [rising, partial curve].

Consider `CC1(C)S[C@@H]2[C@H](NC(=O)[C@@H](N)c3ccc(O)cc3)C(=O)N2[C@H]1C(=O)O`, for which the AC50 runs as follows: under setting [1], 0.00891 µM [falling, full curve, poor fit]; under setting [2], 0.00891 µM [falling, full curve, poor fit].

With `C#CC(C)(CC)NC(=O)Cn1nnc(-c2ccc(S(C)(=O)=O)cc2)n1` (stereo not given), the AC50 was 12.6 µM [rising, partial curve, poor fit] under setting [1] and 15.8 µM [rising, single point] under setting [2].

Turning to `Cc1ccc(C(=O)Nc2ccc3c(c2)OCO3)cc1S(=O)(=O)N1CCCCC1`, under setting [2], the AC50 was 31.6 µM [rising, single point].

Regarding `CC(C)COc1ccc(S(=O)(=O)NNC(=O)c2cc3ccccc3o2)cc1`, the AC50 under setting [2] was 31.6 µM [rising, single point].

For the compound `O=S(=O)(c1ccc(Cl)c(Cl)c1)c1snnc1-c1ccccc1`, the AC50 under setting [2] was 35.5 µM [falling, single point].

Consider `COc1cccc(C(=O)Nc2nc(-c3ccc(S(=O)(=O)N4CCOCC4)cc3)cs2)c1`, for which the AC50 under setting [2] was 3.98 µM [rising, full curve, poor fit].

Take `O=C1c2ccccc2C(=O)C12OC2c1ccc(Cl)cc1` (stereo not given): the AC50 under setting [2] was 31.6 µM [rising, single point].

As for `CCC(=O)N1CCc2cc(CNS(=O)(=O)c3ccc(Cl)s3)ccc21`, the AC50 under setting [1] was 0.398 µM [rising, partial curve, poor fit].

Regarding `CCn1c(C(=O)N2CCCC(C(=O)NCCc3ccc(C)cc3)C2)cc2sccc21` (stereo not given), the AC50 reads like this: under setting [1], 11.2 µM [rising, partial curve]; under setting [2], 14.1 µM [rising, partial curve].

In the case of `COc1ccc(Cc2nc(C(=O)Nc3ccccc3)cs2)cc1`, under setting [2], the half-maximal activity concentration (AC50) is 10 µM [rising, partial curve].

In the case of `COC(=O)/C=C1/N/C(=N\c2nc(C)cc(C)n2)N(c2ccc(Cl)cc2)C1=O`, the concentration at half-maximal activity (AC50) under setting [2] is 11.2 µM [rising, partial curve].

For `CCOc1ccc(NC(=O)C(C)Oc2ccccc2C(=O)Nc2ccc(C)c(Cl)c2)cc1` (stereo not given), the AC50 is, setting by setting: under setting [1], 25.1 µM [falling, single point]; under setting [2], 17.8 µM [falling, partial curve].

Take `Cc1cc(C)cc(NC(=S)NC2CC3CCCC(C2)N3CC(C)C)c1` (stereo not given): the AC50 under setting [2] was 0.00794 µM [rising, full curve, poor fit].

Turning to `CCOc1ccc(NC(=O)c2cc(CN3CCCC3)on2)cc1`, the AC50 under setting [1] is 0.2 µM [falling, full curve, poor fit].

With `COc1ccc(/C=C/C(=O)Oc2cccc(/C=N/NC(=O)COc3c(C)cccc3C)c2)cc1`, the half-maximal activity concentration (AC50) under setting [2] is 35.5 µM [falling, single point].

Take `COc1cc(-c2nc3cnccn3c2Nc2ccc3c(c2)OCCO3)ccc1O`: the AC50 under setting [2] was 17.8 µM [rising, partial curve, poor fit].

Take `CCC(Oc1ccccc1)C(=O)Nc1nnc(C(F)(F)F)s1` (stereo not given): the AC50 under setting [2] is 7.94 µM [rising, partial curve, poor fit].

As for `CCn1c(NC(=O)c2ccc(F)cc2)c2ccccc2nc1=O`, under setting [2], the AC50 is 25.1 µM [rising, single point].

Turning to `COc1ccc(N=Nc2cnc(C)nc2-c2ccccc2)cc1`, under setting [2], the AC50 is 11.2 µM [rising, single point].

In the case of `COC(=O)C1=NN(c2ccccc2)C2(S1)S/C(=C\c1ccccc1)C(=O)N2c1ccccc1` (stereo not given), the AC50 under setting [2] was 35.5 µM [rising, single point].

As for `COc1ccc2nc(SCC(=O)N3CCCCCC3)c(C#N)cc2c1`, the AC50 under setting [2] is 35.5 µM [rising, single point].

Turning to `O=C(COc1c(Br)cc(Br)c2cccnc12)N1CCc2ccccc2C1`, the AC50 under setting [2] is 35.5 µM [rising, single point].

As to `COc1ccc(-c2coc3c(O)c(OC)ccc3c2=O)cc1`, under setting [2], the AC50 is 35.5 µM [rising, single point].

For the compound `O=C(CCCc1nc2ccccc2s1)N1CCN(S(=O)(=O)c2cccs2)CC1`, the half-maximal activity concentration (AC50) was 12.6 µM [rising, single point] under setting [1] and 14.1 µM [rising, single point] under setting [2].

Regarding `O=C(Nc1nnc(S(=O)(=O)N2CCCC2)s1)c1ccccc1Cl`, under setting [2], the AC50 is 8.91 µM [rising, partial curve, poor fit].

For the compound `O=C(Nc1cccnc1)Nc1cc(Cl)cc(Cl)c1`, the AC50 under setting [2] was 35.5 µM [rising, single point].

Regarding `COc1cc(-c2nc3ccccn3c2/N=C/c2ccccc2)ccc1O`, the AC50 under setting [1] was 2.82 µM [falling, partial curve] and the AC50 under setting [2] is 25.1 µM [falling, single point].

`COc1cccc(-n2cnc3sc(C)c(C)c3c2=O)c1`: the AC50 reads like this: under setting [1], 35.5 µM [rising, single point]; under setting [2], 15.8 µM [rising, single point].

For `COc1ccc(CNc2ccnc(-c3ccccc3Cl)n2)c(OC)c1`, the AC50 is 11.2 µM [falling, partial curve] under setting [1] and 10 µM [falling, partial curve] under setting [2].

Turning to `CCOc1ccc(C(=O)NC2=NCCS2)cc1`, under setting [2], the AC50 is 0.0282 µM [falling, full curve, poor fit].

With `O=C(O)c1ccc(CN2CCOCC2)o1`, the AC50 under setting [1] is 0.112 µM [rising, full curve, poor fit].

On to `CCOc1ccc(-c2nnn(CC(=O)c3ccc4c(c3)OCCO4)n2)cc1`, for which the AC50 is 35.5 µM [rising, single point] under setting [1] and 35.5 µM [rising, single point] under setting [2].

Take `CCOc1ccccc1CNC(=O)Cn1nc(C)c2nn(-c3ccc(Cl)cc3)c(C)c2c1=O`: the concentration at half-maximal activity (AC50) under setting [1] is 0.562 µM [rising, full curve].

Turning to `Cc1ccc(Sc2ccc(/C=N/O)cc2[N+](=O)[O-])cc1`, the AC50 is 10 µM [rising, partial curve, poor fit] under setting [1] and 22.4 µM [rising, partial curve] under setting [2].

For `CCOC(=O)c1ccc(NC(=O)CCc2nc(-c3ccc(Cl)cc3)no2)cc1`, the half-maximal activity concentration (AC50) under setting [1] is 14.1 µM [rising, single point] and the AC50 under setting [2] was 25.1 µM [rising, single point].

For `COc1cc(/C=N/N2CCN(C3c4ccccc4-c4ccccc43)CC2)ccc1O`, under setting [2], the half-maximal activity concentration (AC50) is 35.5 µM [rising, single point].

On to `COc1ccccc1Nc1nc2ccccc2n1C`, for which the AC50 under setting [2] is 35.5 µM [rising, single point].

`Cc1cc(OCC(=O)NCCN2CCOCC2)cc(C)c1Br`: the AC50 reads like this: under setting [1], 14.1 µM [rising, single point]; under setting [2], 14.1 µM [rising, single point].

The values above are taken from PubChem BioAssay AID1487 (National Center for Advancing Translational Sciences (NCATS), 2009).
